From ChEMBL document CHEMBL5674883, “The Heterochromatin Landscape in Migrating Cells and the Importance of H3K27me3 for Associated Transcriptome Alterations” (Cells, 2018)
This continues a long series; more values of the same kind are listed elsewhere.

Chains of the proteins cited; added tags and fusions are not shown.
UniProt Q61188, whole entry: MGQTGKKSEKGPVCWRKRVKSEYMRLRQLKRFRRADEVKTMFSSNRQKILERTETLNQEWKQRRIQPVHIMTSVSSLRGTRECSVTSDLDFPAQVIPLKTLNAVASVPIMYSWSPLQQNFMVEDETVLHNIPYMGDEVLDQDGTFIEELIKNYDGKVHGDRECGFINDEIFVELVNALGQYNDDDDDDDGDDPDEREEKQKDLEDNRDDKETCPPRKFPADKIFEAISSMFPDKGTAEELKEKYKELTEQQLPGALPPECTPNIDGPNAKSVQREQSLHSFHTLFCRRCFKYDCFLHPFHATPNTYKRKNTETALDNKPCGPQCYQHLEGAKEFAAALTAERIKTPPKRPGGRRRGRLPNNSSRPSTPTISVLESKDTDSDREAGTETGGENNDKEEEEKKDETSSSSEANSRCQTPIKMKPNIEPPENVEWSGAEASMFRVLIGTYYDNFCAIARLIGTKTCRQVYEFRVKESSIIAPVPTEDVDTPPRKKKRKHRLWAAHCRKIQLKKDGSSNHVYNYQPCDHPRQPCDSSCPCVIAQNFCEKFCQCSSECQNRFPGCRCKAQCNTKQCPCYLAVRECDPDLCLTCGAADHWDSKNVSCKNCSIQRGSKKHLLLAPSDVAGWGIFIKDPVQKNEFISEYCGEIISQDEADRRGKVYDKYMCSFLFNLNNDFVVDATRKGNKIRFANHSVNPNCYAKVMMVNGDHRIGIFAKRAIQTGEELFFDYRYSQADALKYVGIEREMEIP

Key:
Format in all cases: cell-based
[1] = biological target: Histone-lysine N-methyltransferase EZH2 (Mus musculus) (UniProt Q61188); experiment: Inhibition of EZH2 in mouse B16-F1 migrating cells assessed as fold change in H3K27me3-buffered regulated Trp53inp2-mRNA expression at 3 uM measured by ChIP-seq analysis relative to control cells
[2] = biological target: Histone-lysine N-methyltransferase EZH2 (Mus musculus) (UniProt Q61188); experiment: Inhibition of EZH2 in mouse B16-F1 migrating cells assessed as fold change in H3K27me3-buffered regulated Coro2b-mRNA expression at 3 uM measured by ChIP-seq analysis relative to control cells
[3] = biological target: Histone-lysine N-methyltransferase EZH2 (Mus musculus) (UniProt Q61188); experiment: Inhibition of EZH2 in mouse B16-F1 migrating cells assessed as fold change in H3K27me3-buffered regulated Gls-mRNA expression at 3 uM measured by ChIP-seq analysis relative to control cells
[4] = biological target: Histone-lysine N-methyltransferase EZH2 (Mus musculus) (UniProt Q61188); experiment: Inhibition of EZH2 in mouse B16-F1 migrating cells assessed as fold change in H3K27me3-buffered regulated Rgs10-mRNA expression at 3 uM measured by ChIP-seq analysis relative to control cells
[5] = biological target: Histone-lysine N-methyltransferase EZH2 (Mus musculus) (UniProt Q61188); experiment: Inhibition of EZH2 in mouse B16-F1 migrating cells assessed as fold change in H3K27me3-independent regulated Prelid2-mRNA expression at 3 uM measured by ChIP-seq analysis relative to control cells
[6] = biological target: Histone-lysine N-methyltransferase EZH2 (Mus musculus) (UniProt Q61188); experiment: Inhibition of EZH2 in mouse B16-F1 migrating cells assessed as fold change in H3K27me3-buffered regulated Cenpc1-mRNA expression at 3 uM measured by ChIP-seq analysis relative to control cells
[7] = biological target: Histone-lysine N-methyltransferase EZH2 (Mus musculus) (UniProt Q61188); experiment: Inhibition of EZH2 in mouse B16-F1 migrating cells assessed as fold change in H3K27me3-buffered regulated Acap1-mRNA expression at 3 uM measured by ChIP-seq analysis relative to control cells
[8] = biological target: Histone-lysine N-methyltransferase EZH2 (Mus musculus) (UniProt Q61188); experiment: Inhibition of EZH2 in mouse B16-F1 migrating cells assessed as fold change in H3K27me3-buffered regulated S100a1-mRNA expression at 3 uM measured by ChIP-seq analysis relative to control cells
[9] = biological target: Histone-lysine N-methyltransferase EZH2 (Mus musculus) (UniProt Q61188); experiment: Inhibition of EZH2 in mouse B16-F1 migrating cells assessed as fold change in H3K27me3-buffered regulated Rab11fip1-mRNA expression at 3 uM measured by ChIP-seq analysis relative to control cells
[10] = biological target: Histone-lysine N-methyltransferase EZH2 (Mus musculus) (UniProt Q61188); experiment: Inhibition of EZH2 in mouse B16-F1 migrating cells assessed as fold change in H3K27me3-independent regulated Cenpe-mRNA expression at 3 uM measured by ChIP-seq analysis relative to control cells
[11] = biological target: Histone-lysine N-methyltransferase EZH2 (Mus musculus) (UniProt Q61188); experiment: Inhibition of EZH2 in mouse B16-F1 migrating cells assessed as fold change in H3K27me3-buffered regulated Fbln1-mRNA expression at 3 uM measured by ChIP-seq analysis relative to control cells
[12] = biological target: T1, RNA polymerase II (Mus musculus) (UniProt P08775+Q8CFI7+P97760+A0A3Q4L2S8+Q80UW8+P61219+P62488+Q923G2+P60898+O08740+Q63871+P62876); experiment: Inhibition of RNA polymerase II in mouse B16-F1 migrating cells assessed as fold change in Trim23-RNA stability at 0.1 mM measured by ChIP-seq analysis relative to control cells
[13] = biological target: T1, RNA polymerase II (Mus musculus); experiment: Inhibition of RNA polymerase II in mouse B16-F1 migrating cells assessed as fold change in Vps54-RNA stability at 0.1 mM measured by ChIP-seq analysis relative to control cells
[14] = biological target: T1, RNA polymerase II (Mus musculus); experiment: Inhibition of RNA polymerase II in mouse B16-F1 migrating cells assessed as fold change in Rex1bd-RNA stability at 0.1 mM measured by ChIP-seq analysis relative to control cells
[15] = biological target: T1, RNA polymerase II (Mus musculus); experiment: Inhibition of RNA polymerase II in mouse B16-F1 migrating cells assessed as fold change in Brip1-RNA stability at 0.1 mM measured by ChIP-seq analysis relative to control cells
[16] = biological target: T1, RNA polymerase II (Mus musculus); experiment: Inhibition of RNA polymerase II in mouse B16-F1 migrating cells assessed as fold change in Htatsf1-RNA stability at 0.1 mM measured by ChIP-seq analysis relative to control cells
[17] = biological target: T1, RNA polymerase II (Mus musculus); experiment: Inhibition of RNA polymerase II in mouse B16-F1 migrating cells assessed as fold change in Zfp638-RNA stability at 0.1 mM measured by ChIP-seq analysis relative to control cells
[18] = biological target: T1, RNA polymerase II (Mus musculus); experiment: Inhibition of RNA polymerase II in mouse B16-F1 migrating cells assessed as fold change in 5730455P16Rik-RNA stability at 0.1 mM measured by ChIP-seq analysis relative to control cells
[19] = biological target: T1, RNA polymerase II (Mus musculus); experiment: Inhibition of RNA polymerase II in mouse B16-F1 migrating cells assessed as fold change in Pgm2-RNA stability at 0.1 mM measured by ChIP-seq analysis relative to control cells
[20] = biological target: T1, RNA polymerase II (Mus musculus); experiment: Inhibition of RNA polymerase II in mouse B16-F1 migrating cells assessed as fold change in Etv3-RNA stability at 0.1 mM measured by ChIP-seq analysis relative to control cells
[21] = biological target: T1, RNA polymerase II (Mus musculus); experiment: Inhibition of RNA polymerase II in mouse B16-F1 migrating cells assessed as fold change in Appl1-RNA stability at 0.1 mM measured by ChIP-seq analysis relative to control cells
[22] = biological target: T1, RNA polymerase II (Mus musculus); experiment: Inhibition of RNA polymerase II in mouse B16-F1 migrating cells assessed as fold change in Slk-RNA stability at 0.1 mM measured by ChIP-seq analysis relative to control cells
[23] = biological target: T1, RNA polymerase II (Mus musculus); experiment: Inhibition of RNA polymerase II in mouse B16-F1 migrating cells assessed as fold change in Zfp281-RNA stability at 0.1 mM measured by ChIP-seq analysis relative to control cells
[24] = biological target: T1, RNA polymerase II (Mus musculus); experiment: Inhibition of RNA polymerase II in mouse B16-F1 migrating cells assessed as fold change in D330045A20Rik-RNA stability at 0.1 mM measured by ChIP-seq analysis relative to control cells
[25] = biological target: T1, RNA polymerase II (Mus musculus); experiment: Inhibition of RNA polymerase II in mouse B16-F1 migrating cells assessed as fold change in Spr-RNA stability at 0.1 mM measured by ChIP-seq analysis relative to control cells
[26] = biological target: T1, RNA polymerase II (Mus musculus); experiment: Inhibition of RNA polymerase II in mouse B16-F1 migrating cells assessed as fold change in Ncapg-RNA stability at 0.1 mM measured by ChIP-seq analysis relative to control cells
[27] = biological target: T1, RNA polymerase II (Mus musculus); experiment: Inhibition of RNA polymerase II in mouse B16-F1 migrating cells assessed as fold change in Taok1-RNA stability at 0.1 mM measured by ChIP-seq analysis relative to control cells
[28] = biological target: T1, RNA polymerase II (Mus musculus); experiment: Inhibition of RNA polymerase II in mouse B16-F1 migrating cells assessed as fold change in Celf2-RNA stability at 0.1 mM measured by ChIP-seq analysis relative to control cells
[29] = biological target: T1, RNA polymerase II (Mus musculus); experiment: Inhibition of RNA polymerase II in mouse B16-F1 migrating cells assessed as fold change in Slc2a5-RNA stability at 0.1 mM measured by ChIP-seq analysis relative to control cells
[30] = biological target: T1, RNA polymerase II (Mus musculus); experiment: Inhibition of RNA polymerase II in mouse B16-F1 migrating cells assessed as fold change in Ttll4-RNA stability at 0.1 mM measured by ChIP-seq analysis relative to control cells

CCCc1cc(C)[nH]c(=O)c1CNC(=O)c1cc(-c2ccnc(N3CCN(C)CC3)c2)cc2c1cnn2C(C)C
log2FC [1]: 0.53
log2FC [2]: 0.48
log2FC [3]: -0.42
log2FC [4]: 0.47
log2FC [5]: 0.58
log2FC [6]: -0.43
log2FC [7]: -1.33
log2FC [8]: 0.46
log2FC [9]: 0.38
log2FC [10]: -0.64
log2FC [11]: 0.39

OC[C@H]1O[C@@H](n2cnc3cc(Cl)c(Cl)cc32)[C@H](O)[C@@H]1O
log2FC [12]: -0.83
log2FC [13]: -0.46
log2FC [14]: 0.49
log2FC [15]: -0.57
log2FC [16]: -0.64
log2FC [17]: -0.79
log2FC [18]: -0.55
log2FC [19]: 0.7
log2FC [20]: -0.63
log2FC [21]: -0.67
log2FC [22]: -0.76
log2FC [23]: -1.06
log2FC [24]: -1.26
log2FC [25]: 0.39
log2FC [26]: -0.47
log2FC [27]: -0.5
log2FC [28]: -0.4
log2FC [29]: 0.48
log2FC [30]: -0.48
